Measured values from PMC4947154.
No constants are given. Whether binding was seen depends on the method and setting. A result given as binding can be weak or reduced; the word gives no strength. For some of these results: Binding seen in cells or lysates may run through a third protein.

The chains behind the UniProt entries cited, without tags or fusion partners. Where a name states a change or a piece, a line headed by the entry shows the natural chain unless it says otherwise.
UniProt Q9NPF0: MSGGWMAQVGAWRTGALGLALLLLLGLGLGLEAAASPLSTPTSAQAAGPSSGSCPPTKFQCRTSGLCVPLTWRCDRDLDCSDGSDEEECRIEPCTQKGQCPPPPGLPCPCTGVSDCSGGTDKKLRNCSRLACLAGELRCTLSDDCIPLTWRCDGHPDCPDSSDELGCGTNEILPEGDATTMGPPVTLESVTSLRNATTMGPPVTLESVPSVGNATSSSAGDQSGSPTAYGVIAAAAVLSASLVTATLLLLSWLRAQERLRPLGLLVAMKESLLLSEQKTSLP

How the values were obtained:
[1] = target: CD320ΔE88 (MBP cleaved), in complex with TC (human) (UniProt Q9NPF0); test: crystal structure; co-crystals of the purified complex, sitting drop, 20 °C; both purified
[2] = target: CD320(Gly4Ser)4 (flexible linker mutant: EGF-like domain replaced by (Gly4Ser)4) (human) (UniProt Q9NPF0); test: SEC; purified complexes, 0.5-1 mg/ml in 20 mM Tris pH 7.5, 0.5 mM CaCl2, 150 mM NaCl, G3000SWxl column at 4 °C, after heating for 10 min at selected temperatures (thermostability; also with 10 mM EGTA without Ca2+); SEC profiles of purified complexes; both purified
[3] = target: CD320ΔE88 (MBP cleaved), in complex with TC (human) (UniProt Q9NPF0); test: as above
[4] = target: CD320(Gly4Ser)4 (flexible linker mutant: EGF-like domain replaced by (Gly4Ser)4) (human) (UniProt Q9NPF0); test: co-expression and co-purification; TC construct and His9-MBP-CD320 construct co-expressed and secreted from Sf21 cells, complex captured from the medium on Ni-NTA through the receptor's tag

Measured: binding

B1: human transcobalamin (holo-TC, cyanocobalamin-bound) (protein, UniProt P20062 19-427)
chain: EMCEIPEMDSHLVEKLGQHLLPWMDRLSLEHLNPSIYVGLRLSSLQAGTKEDLYLHSLKLGYQQCLLGSAFSEDDGDCQGKPSMGQLALYLLALRANCEFVRGHKGDRLVSQLKWFLEDEKRAIGHDHKGHPHTSYYQYGLGILALCLHQKRVHDSVVDKLLYAVEPFHQGHHSVDTAAMAGLAFTCLKRSNFNPGRRQRITMAIRTVQEEILKAQTPEGHFGNVYSTPLALQFLMTSPMRGAELGTACLKARVALLASLQDGAFQNALMISQLLPVLNHKTYIDLIFPDCLAPRVMLEPAAETIPQTQEIISVTLQVLSLLPPYRQSISVLAGSTVEDVLKKAHELGGFTYETQASLSGPYLTSVMGKAAGEREFWQLLRDPNTPLLQGIADYRPKDGETIELRLVSW
binds: [1] | [2] | [3] | [4]
